Source: the supplement of paper PMC12823440, “Inhibitors supercharge kinase turnover through native proteolytic circuits” (Nature, 2025)
Counter-ions that a name gives are not always drawn. The list shows a part of the results. The calls rarely recur for the same compound in another form.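 In K562 cells expressing nanoluciferase-fused kinases, luminescence was recorded at 4 h intervals between 2 and 18 h, normalized as percent of control with DMSO at 100% and a positive control at 0%. A significant (2 sigma) signal drop marks a time point as decreased. The authors' rule for a hit is not shown and takes in more than the number of time points.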

Chains of the proteins cited; added tags and fusions are not shown. Lines headed by an entry give the natural chain unless they say otherwise; changes in a name come on top.
UniProt P00519, whole entry: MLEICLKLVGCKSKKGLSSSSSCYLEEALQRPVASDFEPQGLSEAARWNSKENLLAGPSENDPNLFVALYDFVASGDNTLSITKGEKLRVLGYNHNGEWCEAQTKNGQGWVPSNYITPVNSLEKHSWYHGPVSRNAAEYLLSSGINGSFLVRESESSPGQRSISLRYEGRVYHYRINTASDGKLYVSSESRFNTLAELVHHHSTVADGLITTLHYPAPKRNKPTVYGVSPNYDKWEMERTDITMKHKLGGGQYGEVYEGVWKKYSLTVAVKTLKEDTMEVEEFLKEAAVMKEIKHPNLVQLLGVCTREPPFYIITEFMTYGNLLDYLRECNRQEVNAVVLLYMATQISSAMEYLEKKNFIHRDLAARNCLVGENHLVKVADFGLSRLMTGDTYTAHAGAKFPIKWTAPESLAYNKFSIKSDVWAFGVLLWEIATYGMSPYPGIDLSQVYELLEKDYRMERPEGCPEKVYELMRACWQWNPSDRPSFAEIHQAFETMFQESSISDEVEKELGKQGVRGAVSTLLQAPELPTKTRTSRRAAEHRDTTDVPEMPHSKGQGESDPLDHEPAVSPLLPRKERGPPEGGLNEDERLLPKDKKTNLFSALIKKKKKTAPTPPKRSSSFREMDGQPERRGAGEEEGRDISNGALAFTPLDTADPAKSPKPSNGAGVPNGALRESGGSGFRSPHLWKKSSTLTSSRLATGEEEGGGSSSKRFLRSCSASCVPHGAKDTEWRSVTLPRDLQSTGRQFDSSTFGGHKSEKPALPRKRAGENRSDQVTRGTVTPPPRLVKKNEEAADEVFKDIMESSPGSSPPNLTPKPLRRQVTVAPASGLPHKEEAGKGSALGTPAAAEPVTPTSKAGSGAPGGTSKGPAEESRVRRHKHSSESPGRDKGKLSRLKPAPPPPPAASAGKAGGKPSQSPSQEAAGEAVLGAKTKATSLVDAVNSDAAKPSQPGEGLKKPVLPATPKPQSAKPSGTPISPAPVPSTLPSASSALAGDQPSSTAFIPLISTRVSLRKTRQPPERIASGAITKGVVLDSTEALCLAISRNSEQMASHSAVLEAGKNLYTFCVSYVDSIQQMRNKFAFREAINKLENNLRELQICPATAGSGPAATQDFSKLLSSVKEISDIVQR
UniProt P31749: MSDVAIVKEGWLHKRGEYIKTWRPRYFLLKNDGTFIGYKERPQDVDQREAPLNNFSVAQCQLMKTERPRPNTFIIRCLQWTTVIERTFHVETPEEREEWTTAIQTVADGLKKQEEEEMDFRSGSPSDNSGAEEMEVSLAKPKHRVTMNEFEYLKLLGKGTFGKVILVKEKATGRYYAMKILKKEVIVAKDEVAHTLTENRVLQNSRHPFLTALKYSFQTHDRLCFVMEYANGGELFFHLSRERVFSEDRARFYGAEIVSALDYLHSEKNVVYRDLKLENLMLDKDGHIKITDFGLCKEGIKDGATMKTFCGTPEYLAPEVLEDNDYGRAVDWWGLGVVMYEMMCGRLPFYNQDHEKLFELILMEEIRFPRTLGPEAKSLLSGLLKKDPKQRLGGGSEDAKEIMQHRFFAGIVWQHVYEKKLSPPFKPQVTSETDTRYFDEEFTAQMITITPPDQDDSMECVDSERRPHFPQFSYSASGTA
UniProt Q9UM73: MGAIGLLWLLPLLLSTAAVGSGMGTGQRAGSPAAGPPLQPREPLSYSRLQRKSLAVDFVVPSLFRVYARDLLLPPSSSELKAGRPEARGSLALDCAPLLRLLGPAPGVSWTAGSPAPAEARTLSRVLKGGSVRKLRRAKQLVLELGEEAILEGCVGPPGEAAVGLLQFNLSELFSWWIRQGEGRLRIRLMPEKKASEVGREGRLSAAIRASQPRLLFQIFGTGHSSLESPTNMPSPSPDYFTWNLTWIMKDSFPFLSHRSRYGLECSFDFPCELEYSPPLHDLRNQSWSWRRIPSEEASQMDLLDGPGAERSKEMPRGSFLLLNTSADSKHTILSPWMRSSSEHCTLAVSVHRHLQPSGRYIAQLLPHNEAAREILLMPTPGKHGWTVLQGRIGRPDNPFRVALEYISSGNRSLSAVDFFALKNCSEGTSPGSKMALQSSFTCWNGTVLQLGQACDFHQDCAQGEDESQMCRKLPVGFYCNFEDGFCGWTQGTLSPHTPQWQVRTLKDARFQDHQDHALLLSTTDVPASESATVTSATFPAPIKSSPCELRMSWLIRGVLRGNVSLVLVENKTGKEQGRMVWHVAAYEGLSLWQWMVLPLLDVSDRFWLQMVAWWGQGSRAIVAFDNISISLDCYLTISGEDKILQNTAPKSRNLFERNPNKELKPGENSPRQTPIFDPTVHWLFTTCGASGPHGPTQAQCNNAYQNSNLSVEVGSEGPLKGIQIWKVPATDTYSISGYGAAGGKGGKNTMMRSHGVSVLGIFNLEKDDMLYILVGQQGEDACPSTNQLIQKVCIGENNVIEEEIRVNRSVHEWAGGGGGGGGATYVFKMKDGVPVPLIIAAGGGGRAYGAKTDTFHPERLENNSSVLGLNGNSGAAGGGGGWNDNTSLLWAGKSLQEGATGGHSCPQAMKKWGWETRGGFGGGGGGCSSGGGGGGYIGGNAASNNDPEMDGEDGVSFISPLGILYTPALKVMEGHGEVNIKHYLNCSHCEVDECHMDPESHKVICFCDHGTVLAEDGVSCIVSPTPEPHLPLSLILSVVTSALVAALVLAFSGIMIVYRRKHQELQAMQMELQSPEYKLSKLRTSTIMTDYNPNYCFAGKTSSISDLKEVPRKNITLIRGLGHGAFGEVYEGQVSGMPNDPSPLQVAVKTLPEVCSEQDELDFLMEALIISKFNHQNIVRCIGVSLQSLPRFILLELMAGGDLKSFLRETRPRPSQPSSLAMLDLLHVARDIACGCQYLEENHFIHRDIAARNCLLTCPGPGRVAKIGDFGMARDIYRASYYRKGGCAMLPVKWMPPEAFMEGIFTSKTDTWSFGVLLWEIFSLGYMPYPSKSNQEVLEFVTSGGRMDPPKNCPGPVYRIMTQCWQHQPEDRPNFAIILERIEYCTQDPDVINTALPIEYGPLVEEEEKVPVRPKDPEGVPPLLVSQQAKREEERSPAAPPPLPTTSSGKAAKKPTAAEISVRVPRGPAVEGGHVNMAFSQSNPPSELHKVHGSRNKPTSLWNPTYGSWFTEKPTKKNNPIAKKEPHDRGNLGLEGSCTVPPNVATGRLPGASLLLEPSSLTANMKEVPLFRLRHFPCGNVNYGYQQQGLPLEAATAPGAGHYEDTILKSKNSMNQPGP
UniProt P10398: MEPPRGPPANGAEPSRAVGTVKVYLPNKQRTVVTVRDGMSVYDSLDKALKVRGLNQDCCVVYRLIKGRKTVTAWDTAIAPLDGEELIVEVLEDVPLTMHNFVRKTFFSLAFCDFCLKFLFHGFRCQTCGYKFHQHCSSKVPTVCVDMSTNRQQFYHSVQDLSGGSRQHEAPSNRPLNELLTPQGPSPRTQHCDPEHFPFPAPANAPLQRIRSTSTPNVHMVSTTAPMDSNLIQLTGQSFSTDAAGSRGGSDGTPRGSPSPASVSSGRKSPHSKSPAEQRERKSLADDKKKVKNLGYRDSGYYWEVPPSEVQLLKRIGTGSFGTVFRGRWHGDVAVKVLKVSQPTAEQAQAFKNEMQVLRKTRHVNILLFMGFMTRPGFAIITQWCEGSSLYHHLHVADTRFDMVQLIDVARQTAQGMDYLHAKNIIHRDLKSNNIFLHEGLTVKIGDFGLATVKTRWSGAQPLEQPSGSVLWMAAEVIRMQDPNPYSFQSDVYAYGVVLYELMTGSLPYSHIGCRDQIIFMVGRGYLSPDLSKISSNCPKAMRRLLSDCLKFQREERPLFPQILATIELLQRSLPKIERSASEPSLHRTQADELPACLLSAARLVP
UniProt O14965: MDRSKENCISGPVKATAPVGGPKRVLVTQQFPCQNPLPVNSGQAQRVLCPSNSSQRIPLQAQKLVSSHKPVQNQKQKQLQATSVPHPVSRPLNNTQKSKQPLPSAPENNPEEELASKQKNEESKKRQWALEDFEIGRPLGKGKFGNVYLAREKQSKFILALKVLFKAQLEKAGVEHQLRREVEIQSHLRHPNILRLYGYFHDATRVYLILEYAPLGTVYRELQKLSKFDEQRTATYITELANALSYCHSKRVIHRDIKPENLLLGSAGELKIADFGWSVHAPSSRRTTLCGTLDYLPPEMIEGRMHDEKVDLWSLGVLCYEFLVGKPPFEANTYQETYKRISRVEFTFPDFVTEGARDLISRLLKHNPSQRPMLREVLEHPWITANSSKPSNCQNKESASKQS
UniProt Q9UQB9: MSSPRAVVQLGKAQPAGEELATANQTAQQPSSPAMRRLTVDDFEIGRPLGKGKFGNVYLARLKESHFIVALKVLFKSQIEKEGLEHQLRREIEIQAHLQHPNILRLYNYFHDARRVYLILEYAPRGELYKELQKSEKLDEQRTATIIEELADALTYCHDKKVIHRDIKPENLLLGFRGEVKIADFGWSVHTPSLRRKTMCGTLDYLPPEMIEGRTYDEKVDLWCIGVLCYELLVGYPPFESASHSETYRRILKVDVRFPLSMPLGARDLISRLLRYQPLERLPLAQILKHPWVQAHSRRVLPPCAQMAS
UniProt P51451: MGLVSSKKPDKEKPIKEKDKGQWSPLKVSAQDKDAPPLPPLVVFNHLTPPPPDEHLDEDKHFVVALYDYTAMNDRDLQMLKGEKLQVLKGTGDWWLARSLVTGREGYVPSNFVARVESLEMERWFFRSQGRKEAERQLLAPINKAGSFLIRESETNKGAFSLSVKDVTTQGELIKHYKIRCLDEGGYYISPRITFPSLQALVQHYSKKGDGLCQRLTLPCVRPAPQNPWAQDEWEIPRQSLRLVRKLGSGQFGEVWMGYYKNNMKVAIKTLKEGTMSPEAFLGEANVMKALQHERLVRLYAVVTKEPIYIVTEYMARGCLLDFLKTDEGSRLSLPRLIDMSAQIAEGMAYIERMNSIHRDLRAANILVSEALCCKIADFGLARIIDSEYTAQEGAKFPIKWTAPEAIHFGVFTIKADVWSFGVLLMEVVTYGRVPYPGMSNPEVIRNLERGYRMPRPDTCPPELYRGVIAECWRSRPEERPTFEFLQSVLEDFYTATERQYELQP
UniProt P51813: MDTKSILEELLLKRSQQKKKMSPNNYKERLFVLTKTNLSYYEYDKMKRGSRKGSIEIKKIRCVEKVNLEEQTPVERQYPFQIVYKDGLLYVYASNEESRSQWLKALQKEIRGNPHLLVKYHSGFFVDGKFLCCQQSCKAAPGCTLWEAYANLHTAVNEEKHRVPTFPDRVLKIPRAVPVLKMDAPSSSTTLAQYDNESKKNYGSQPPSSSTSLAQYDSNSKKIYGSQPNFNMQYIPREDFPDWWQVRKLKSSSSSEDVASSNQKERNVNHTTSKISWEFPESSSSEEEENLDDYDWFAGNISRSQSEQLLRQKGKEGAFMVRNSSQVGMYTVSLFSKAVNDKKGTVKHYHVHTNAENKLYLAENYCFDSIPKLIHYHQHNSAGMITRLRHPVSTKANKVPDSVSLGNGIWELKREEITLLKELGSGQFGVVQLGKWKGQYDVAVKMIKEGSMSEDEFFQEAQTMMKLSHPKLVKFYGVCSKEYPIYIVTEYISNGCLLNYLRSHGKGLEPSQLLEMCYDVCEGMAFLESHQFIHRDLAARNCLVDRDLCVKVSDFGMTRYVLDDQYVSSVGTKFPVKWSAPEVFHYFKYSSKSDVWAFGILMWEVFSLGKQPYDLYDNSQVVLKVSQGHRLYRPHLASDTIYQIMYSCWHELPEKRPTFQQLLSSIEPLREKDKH
UniProt P15056, whole entry, looked up: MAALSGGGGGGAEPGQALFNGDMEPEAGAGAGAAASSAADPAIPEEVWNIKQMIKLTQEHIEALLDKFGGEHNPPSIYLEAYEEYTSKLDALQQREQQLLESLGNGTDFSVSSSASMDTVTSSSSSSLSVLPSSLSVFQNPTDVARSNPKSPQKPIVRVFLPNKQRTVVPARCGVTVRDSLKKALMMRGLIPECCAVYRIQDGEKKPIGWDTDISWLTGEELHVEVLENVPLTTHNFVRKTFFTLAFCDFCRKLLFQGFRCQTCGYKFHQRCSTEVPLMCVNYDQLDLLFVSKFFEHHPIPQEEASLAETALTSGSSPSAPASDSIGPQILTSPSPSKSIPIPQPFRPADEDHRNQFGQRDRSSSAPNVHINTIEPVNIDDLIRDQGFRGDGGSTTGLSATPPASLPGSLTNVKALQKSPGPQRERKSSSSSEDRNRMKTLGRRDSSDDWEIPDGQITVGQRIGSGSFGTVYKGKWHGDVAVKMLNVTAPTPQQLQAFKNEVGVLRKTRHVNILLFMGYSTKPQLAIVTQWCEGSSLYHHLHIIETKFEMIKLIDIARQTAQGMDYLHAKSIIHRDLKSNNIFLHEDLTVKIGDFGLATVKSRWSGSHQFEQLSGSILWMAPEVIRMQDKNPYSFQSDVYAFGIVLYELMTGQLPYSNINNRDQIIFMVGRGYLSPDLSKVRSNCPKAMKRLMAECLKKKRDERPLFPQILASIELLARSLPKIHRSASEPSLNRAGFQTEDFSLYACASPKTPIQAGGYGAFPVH

What was measured:
Assay in all cases: kinase-Nluc reporter destabilization hit call (1 = scored as downregulated) (binary); higher = compound decreases kinase abundance
Details in all cases: K562; 2-18 h
ABL1 = ABL1 (UniProt P00519)
AKT1 = AKT1 (UniProt P31749)
ALK = ALK (UniProt Q9UM73)
ARAF = ARAF (UniProt P10398)
AURKA = AURKA (UniProt O14965)
AURKB = AURKB (UniProt Q96GD4)
AURKC = AURKC (UniProt Q9UQB9)
BLK = BLK (UniProt P51451)
BMX = BMX (UniProt P51813)
BRAF = BRAF (UniProt P15056)

Measured: kinase-Nluc reporter destabilization hit call

Nc1ncnc2c1ncn2[C@@H]1O[C@H](CO)C[C@H]1O [Cordycepin] (10 µM)
inactive: ABL1 = 0 | AKT1 = 0 | ALK 0 | ARAF 0 | AURKA 0 | AURKB 0 | AURKC 0 | BLK 0 | BMX 0 | BRAF 0

O=c1oc2cc(O)ccc2c2ccccc12 [Urolithin B] (10 µM)
inactive: ABL1 = 0 | AKT1 = 0 | ALK 0 | ARAF 0 | AURKA 0 | AURKB 0 | AURKC 0 | BLK 0 | BMX 0 | BRAF 0

CC(=NNC(=O)c1ccc(C)c(Br)c1)c1ccc(O)cc1O [mTOR inhibitor-1] (2.5 µM)
inactive: ABL1 = 0 | AKT1 = 0 | ALK 0 | ARAF 0 | AURKA 0 | AURKB 0 | AURKC 0 | BLK 0 | BMX 0 | BRAF 0

C[C@@]1(O)CCC[C@H]1n1c(=O)c(C(F)F)cc2cnc(NC3CCN(S(C)(=O)=O)CC3)nc21 (2.5 µM)
inactive: ABL1 = 0 | AKT1 = 0 | ALK 0 | ARAF 0 | AURKA 0 | AURKB 0 | AURKC 0 | BLK 0 | BMX 0 | BRAF 0

Arranged by formula weight (descending): part of the list above.
C[C@@]1(O)CCC[C@H]1n1c(=O)c(C(F)F)cc2cnc(NC3CCN(S(C)(=O)=O)CC3)nc21 (2.5 µM)
inactive: ABL1 = 0 | AKT1 = 0 | ALK 0 | ARAF 0 | AURKA 0 | AURKB 0 | AURKC 0 | BLK 0 | BMX 0 | BRAF 0

CC(=NNC(=O)c1ccc(C)c(Br)c1)c1ccc(O)cc1O [mTOR inhibitor-1] (2.5 µM)
inactive: ABL1 = 0 | AKT1 = 0 | ALK 0 | ARAF 0 | AURKA 0 | AURKB 0 | AURKC 0 | BLK 0 | BMX 0 | BRAF 0

O=c1oc2cc(O)ccc2c2ccccc12 [Urolithin B] (10 µM)
inactive: ABL1 = 0 | AKT1 = 0 | ALK 0 | ARAF 0 | AURKA 0 | AURKB 0 | AURKC 0 | BLK 0 | BMX 0 | BRAF 0

(further entries)

C=C(C)C(=O)Nc1cccc(-c2ncnc3[nH]cc(C(=O)OCC)c23)c1 (10 µM)
inactive: ABL1 = 0 | AKT1 = 0 | ALK 0 | ARAF 0 | AURKA 0 | AURKB 0 | AURKC 0 | BLK 0 | BMX 0 | BRAF 0

C=CC(=O)Nc1cc2c(Nc3ccc(OCc4ccccn4)c(Cl)c3)ncnc2cc1OCCN1CCOCC1 (10 µM)
inactive: ABL1 = 0 | AKT1 = 0 | ALK 0 | ARAF 0 | AURKA 0 | AURKB 0 | AURKC 0 | BLK 0 | BMX 0 | BRAF 0

COc1cc(C(N)=O)nc(-c2cccc(C#C[C@]3(O)CCN(C)C3=O)c2)c1 (10 µM)
inactive: ABL1 = 0 | AKT1 = 0 | ALK 0 | ARAF 0 | AURKA 0 | AURKB 0 | AURKC 0 | BLK 0 | BMX 0 | BRAF 0

CN(C)CCN(Cc1ccc(Cl)cc1)c1ccccn1 [Chloropyramine hydrochloride] (10 µM)
inactive: ABL1 = 0 | AKT1 = 0 | ALK 0 | ARAF 0 | AURKA 0 | AURKB 0 | AURKC 0 | BLK 0 | BMX 0 | BRAF 0

COc1ccc(-c2ccc3c(N4CCOC[C@@H]4C)nc(N4CCOC[C@@H]4C)nc3n2)cc1CO (2.5 µM)
active: ABL1 = 1
inactive: AKT1 = 0 | ALK 0 | ARAF 0 | AURKA 0 | AURKB 0 | AURKC 0 | BLK 0 | BMX 0 | BRAF 0

Cn1cnc(-c2cc3nccc(Oc4ccc(NC(=S)NC(=O)Cc5ccccc5)cc4F)c3s2)c1 [MGCD-265 analog] (10 µM)
inactive: ABL1 = 0 | AKT1 = 0 | ALK 0 | ARAF 0 | AURKA 0 | AURKB 0 | AURKC 0 | BLK 0 | BMX 0 | BRAF 0

COc1ccc([C@H]2c3[nH]c4ccc(Cl)cc4c3CCN2C(=O)Oc2ccc(Cl)cc2)cc1 (2.5 µM)
inactive: ABL1 = 0 | AKT1 = 0 | ALK 0 | ARAF 0 | AURKA 0 | AURKB 0 | AURKC 0 | BLK 0 | BMX 0 | BRAF 0

NC1(Cc2ccc(Cl)cc2)CCN(c2ncnc3[nH]ccc23)CC1 (10 µM)
inactive: ABL1 = 0 | AKT1 = 0 | ALK 0 | ARAF 0 | AURKA 0 | AURKB 0 | AURKC 0 | BLK 0 | BMX 0 | BRAF 0

O=C(NC(NC(=S)Nc1ccc(F)c([N+](=O)[O-])c1)C(Cl)(Cl)Cl)C(c1ccccc1)c1ccccc1 (stereo not given) (10 µM)
inactive: ABL1 = 0 | AKT1 = 0 | ALK 0 | ARAF 0 | AURKA 0 | AURKB 0 | AURKC 0 | BLK 0 | BMX 0 | BRAF 0

COc1ccc(CC(=O)Nc2nc3c(s2)CCc2ccccc2-3)cc1OC (10 µM)
inactive: ABL1 = 0 | AKT1 = 0 | ALK 0 | ARAF 0 | AURKA 0 | AURKB 0 | AURKC 0 | BLK 0 | BMX 0 | BRAF 0

CCn1c(=O)c(-c2ccc(-c3cncc(C)n3)cc2Cl)cc2cnc(NCCC3CCN(C)CC3)nc21 (10 µM)
inactive: ABL1 = 0 | AKT1 = 0 | ALK 0 | ARAF 0 | AURKA 0 | AURKB 0 | AURKC 0 | BLK 0 | BMX 0 | BRAF 0

O=C(O)CCc1ccc(O)c(O)c1 [Dihydrocaffeic acid] (10 µM)
inactive: ABL1 = 0 | AKT1 = 0 | ALK 0 | ARAF 0 | AURKA 0 | AURKB 0 | AURKC 0 | BLK 0 | BMX 0 | BRAF 0

CC(c1ccc(-c2cnc3c(-c4ccc(S(N)(=O)=O)c5ccccc45)cnn3c2)cc1)N1CCCC1 (stereo not given) (2.5 µM)
inactive: ABL1 = 0 | AKT1 = 0 | ALK 0 | ARAF 0 | AURKA 0 | AURKB 0 | AURKC 0 | BLK 0 | BMX 0 | BRAF 0

COc1ccc(C2CC(c3ccccc3)=NN2c2ccc(S(N)(=O)=O)cc2)cc1 (stereo not given) (10 µM)
inactive: ABL1 = 0 | AKT1 = 0 | ALK 0 | ARAF 0 | AURKA 0 | AURKB 0 | AURKC 0 | BLK 0 | BMX 0 | BRAF 0

CN(CC(=O)N(Cc1ccc(C2CCCCC2)cc1)c1ccc(C(=O)O)cc1)S(=O)(=O)c1c(F)c(F)c(F)c(F)c1F (2.5 µM)
inactive: ABL1 = 0 | AKT1 = 0 | ALK 0 | ARAF 0 | AURKA 0 | AURKB 0 | AURKC 0 | BLK 0 | BMX 0 | BRAF 0

COc1ccc(Cl)cc1NC(=O)Nc1cc(C)nc2ccccc12 (2.5 µM)
inactive: ABL1 = 0 | AKT1 = 0 | ALK 0 | ARAF 0 | AURKA 0 | AURKB 0 | AURKC 0 | BLK 0 | BMX 0 | BRAF 0

Cc1csc(-c2nnc(Nc3ccc(Oc4ncccc4-c4ccnc(N)n4)cc3)c3ccccc23)c1 (2.5 µM)
inactive: ABL1 = 0 | AKT1 = 0 | ALK 0 | ARAF 0 | AURKA 0 | AURKB 0 | AURKC 0 | BLK 0 | BMX 0 | BRAF 0

CCn1c(=O)c(-c2ccc(-c3cncs3)cc2Cl)cc2cnc(Nc3ccc(N4CCN(C)CC4)cc3)nc21 (2.5 µM)
inactive: ABL1 = 0 | AKT1 = 0 | ALK 0 | ARAF 0 | AURKA 0 | AURKB 0 | AURKC 0 | BLK 0 | BMX 0 | BRAF 0

C#CCN(C)C(=O)CCNc1nc(N2CCN(C(=O)C=C)CC2)c2cc(Cl)c(-c3c(O)cccc3F)c(F)c2n1 [ARS-1323-alkyne] (2.5 µM)
inactive: ABL1 = 0 | AKT1 = 0 | ALK 0 | ARAF 0 | AURKA 0 | AURKB 0 | AURKC 0 | BLK 0 | BMX 0 | BRAF 0

CN1CCN(c2ccc(Nc3ncc4nc(Nc5ccccc5)n([C@@H]5CCN(S(=O)(=O)C6CC6)C5)c4n3)cc2)CC1 (2.5 µM)
inactive: ABL1 = 0 | AKT1 = 0 | ALK 0 | ARAF 0 | AURKA 0 | AURKB 0 | AURKC 0 | BLK 0 | BMX 0 | BRAF 0

COc1cc([N+](=O)[O-])ccc1S(=O)(=O)N1C[C@@H](CN2CCN(c3ccccn3)CC2)[C@H](c2cccc(F)c2)C1 (relative stereo) (10 µM)
inactive: ABL1 = 0 | AKT1 = 0 | ALK 0 | ARAF 0 | AURKA 0 | AURKB 0 | AURKC 0 | BLK 0 | BMX 0 | BRAF 0

COC1(c2sc3c(N4CCOCC4)nc(-c4cnc(N)nc4)nc3c2C)COC1 (2.5 µM)
inactive: ABL1 = 0 | AKT1 = 0 | ALK 0 | ARAF 0 | AURKA 0 | AURKB 0 | AURKC 0 | BLK 0 | BMX 0 | BRAF 0

CC[C@@]1(c2ccccc2)C2=C(CC(C)(C)CC2=O)Nc2[nH]ncc21 (10 µM)
inactive: ABL1 = 0 | AKT1 = 0 | ALK 0 | ARAF 0 | AURKA 0 | AURKB 0 | AURKC 0 | BLK 0 | BMX 0 | BRAF 0
